The record followed here is article doi:10.1101/2022.12.18.520920.

Results are given in words; binding and its absence hold for the method and conditions named. Binding calls can cover weak binding; strength is not graded here. Tags and fused reporters may be left off the sequences shown.

The target of the experiment is BD-AtHB23ΔAHA (Arabidopsis thaliana). Nature of the experiment: two-hybrid.

B1: AD-MYB68 (protein, UniProt Q9FHP1 1-477)
chain: MMEIAYQPRIDSEIESLVERINPPRVCVDNDSDPECTLIKVDSANKYGILLDMVQVLADLDLVISKCYISSDGEWFMDVFHVTDQLGNKLTDRSLILYIQQAICSSRTGGITKEMQSNLKREVQQRHVSTEHTAFEITGINRPGLLSEISAVLSDIGCHVTAAVAWTHHERAAMVIYLEDGFNGGPIIDPIRKAQVKDHLDTVMEAHHIVGDVSHVVVRVVEAKGVPVGWAHTERRLHELMYGEGDYENCFDCDCFGDRCDALWRGRCERIHVTIEACNGYSMVNVKCRDRPKLLFDTVCALKELQFVVFHAVAGAKGSTAEQEYFIRKKNGGTLETEGQRERLRHCLVAAISRRASQGLKLEIRTENKMGLLSDVTRVVRENGLSITRAEMCTQGEIAVGSFYVTDVNGGETGPSEVEAVVRELGGAVVSAVKGVGMMPRRIGSTSDSVEQDKAKSSIGRMFWSKLERLSTSIRSL
Consider B1, for which the binding entry is on record as “binds”.
